Measured values from publication doi:10.1101/2024.08.26.609654.
No constants are given. Whether binding was seen depends on the method and setting. Binding seen in cells or lysates may run through a third protein. Some binding calls cover weakened binding; strength is not graded here. For part of these data: Sequences can lack the tags named with a protein.

Protein sequences, listed by entry. Tags and fused reporters are not part of them.
UniProt Q15648: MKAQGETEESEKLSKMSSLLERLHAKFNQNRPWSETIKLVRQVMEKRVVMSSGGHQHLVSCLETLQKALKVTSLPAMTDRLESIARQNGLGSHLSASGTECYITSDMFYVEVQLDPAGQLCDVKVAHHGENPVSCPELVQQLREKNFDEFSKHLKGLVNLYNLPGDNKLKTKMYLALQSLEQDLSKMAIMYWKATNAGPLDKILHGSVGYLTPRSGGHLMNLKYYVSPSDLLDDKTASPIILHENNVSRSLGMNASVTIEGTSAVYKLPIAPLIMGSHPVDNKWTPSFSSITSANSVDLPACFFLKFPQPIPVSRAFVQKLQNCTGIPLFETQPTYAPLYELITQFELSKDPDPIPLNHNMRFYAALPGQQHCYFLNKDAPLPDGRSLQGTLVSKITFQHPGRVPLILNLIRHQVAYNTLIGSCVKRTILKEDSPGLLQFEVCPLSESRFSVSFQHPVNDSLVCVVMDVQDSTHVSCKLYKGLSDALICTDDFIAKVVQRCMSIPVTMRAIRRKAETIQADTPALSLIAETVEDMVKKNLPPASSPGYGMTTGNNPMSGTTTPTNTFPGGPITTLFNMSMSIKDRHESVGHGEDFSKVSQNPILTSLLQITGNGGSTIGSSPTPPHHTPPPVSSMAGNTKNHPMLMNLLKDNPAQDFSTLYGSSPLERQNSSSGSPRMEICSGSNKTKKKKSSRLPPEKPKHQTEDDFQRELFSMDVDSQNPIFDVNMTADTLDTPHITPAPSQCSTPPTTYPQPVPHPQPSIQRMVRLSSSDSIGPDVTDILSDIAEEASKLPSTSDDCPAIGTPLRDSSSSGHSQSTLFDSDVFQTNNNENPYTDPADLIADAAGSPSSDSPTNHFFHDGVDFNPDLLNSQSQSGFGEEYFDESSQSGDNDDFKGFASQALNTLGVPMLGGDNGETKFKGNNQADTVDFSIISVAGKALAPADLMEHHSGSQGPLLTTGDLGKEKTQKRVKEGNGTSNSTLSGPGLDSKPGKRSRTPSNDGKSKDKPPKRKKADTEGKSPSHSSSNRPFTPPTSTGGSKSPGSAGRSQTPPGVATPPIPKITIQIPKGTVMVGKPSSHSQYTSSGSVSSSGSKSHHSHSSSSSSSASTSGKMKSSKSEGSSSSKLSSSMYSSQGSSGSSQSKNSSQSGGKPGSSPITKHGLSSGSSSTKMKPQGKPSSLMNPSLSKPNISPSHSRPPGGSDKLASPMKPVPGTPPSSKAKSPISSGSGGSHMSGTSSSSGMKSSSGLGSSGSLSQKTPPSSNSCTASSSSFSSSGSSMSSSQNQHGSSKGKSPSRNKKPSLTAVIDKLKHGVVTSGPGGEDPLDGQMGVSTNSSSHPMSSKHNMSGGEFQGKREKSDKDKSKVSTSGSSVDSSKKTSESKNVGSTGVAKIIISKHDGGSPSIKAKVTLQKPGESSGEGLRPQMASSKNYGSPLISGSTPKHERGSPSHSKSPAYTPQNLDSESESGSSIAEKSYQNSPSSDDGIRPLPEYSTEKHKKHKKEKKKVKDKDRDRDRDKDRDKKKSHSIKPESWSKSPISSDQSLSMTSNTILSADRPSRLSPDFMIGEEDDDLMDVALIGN
UniProt P24863: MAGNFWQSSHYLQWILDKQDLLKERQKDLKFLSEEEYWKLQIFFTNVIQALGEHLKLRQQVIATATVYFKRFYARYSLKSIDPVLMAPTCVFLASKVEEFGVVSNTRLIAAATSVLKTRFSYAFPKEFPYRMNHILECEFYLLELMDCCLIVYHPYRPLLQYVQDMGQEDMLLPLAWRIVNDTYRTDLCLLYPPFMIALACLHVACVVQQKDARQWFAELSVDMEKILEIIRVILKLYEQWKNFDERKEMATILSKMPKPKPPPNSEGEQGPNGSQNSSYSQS
UniProt P50750: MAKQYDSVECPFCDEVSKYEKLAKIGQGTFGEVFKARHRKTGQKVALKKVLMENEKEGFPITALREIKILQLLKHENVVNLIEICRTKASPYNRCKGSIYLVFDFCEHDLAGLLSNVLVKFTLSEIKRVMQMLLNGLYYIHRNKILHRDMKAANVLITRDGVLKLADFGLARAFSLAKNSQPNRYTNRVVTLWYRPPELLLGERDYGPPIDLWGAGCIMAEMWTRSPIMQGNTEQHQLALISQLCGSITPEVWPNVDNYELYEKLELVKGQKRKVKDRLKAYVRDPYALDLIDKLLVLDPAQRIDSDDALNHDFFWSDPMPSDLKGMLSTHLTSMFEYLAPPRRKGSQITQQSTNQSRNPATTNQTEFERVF

Legend:
3×Flag-MED1 = 3×Flag-MED1 (UniProt Q15648); experiment: co-IP
3×Flag-MED26 = molecular target: T1, 3×Flag-MED26 (UniProt O95402); experiment: co-IP
T1 sequence: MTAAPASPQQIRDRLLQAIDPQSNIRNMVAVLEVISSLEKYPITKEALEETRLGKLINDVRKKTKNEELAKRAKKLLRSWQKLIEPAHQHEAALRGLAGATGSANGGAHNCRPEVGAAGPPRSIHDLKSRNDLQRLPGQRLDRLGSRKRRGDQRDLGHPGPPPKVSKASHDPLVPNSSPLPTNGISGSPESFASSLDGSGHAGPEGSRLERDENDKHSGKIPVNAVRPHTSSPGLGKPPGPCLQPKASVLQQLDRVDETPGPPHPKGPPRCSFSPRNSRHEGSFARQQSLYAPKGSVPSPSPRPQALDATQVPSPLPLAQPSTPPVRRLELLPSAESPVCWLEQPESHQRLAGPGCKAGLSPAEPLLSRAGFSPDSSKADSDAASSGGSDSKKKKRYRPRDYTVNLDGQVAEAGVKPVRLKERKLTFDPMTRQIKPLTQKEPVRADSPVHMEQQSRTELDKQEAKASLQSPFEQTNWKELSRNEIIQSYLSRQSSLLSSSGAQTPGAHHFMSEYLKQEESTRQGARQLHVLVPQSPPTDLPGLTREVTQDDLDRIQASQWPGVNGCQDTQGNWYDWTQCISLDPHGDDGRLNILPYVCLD

Row | binding (3×Flag-MED1) | binding (3×Flag-MED26) | Substance
1 | binds | – | CCNC1 (from UniProt P24863 1-283)
2 | binds | binds | CDK9 (from UniProt P50750 1-372)
